Data from US4909940A, “Extraction of process chemicals from labile biological mixtures with organic alcohols or with halogenated hydrocarbons” (priority 1987, dated 1990).

Assays:
[1] = Plasma filterability after extraction; settings: 10% extractant; for Minimum Porosity of Filter which Provides a Flow Rate of 12 mL/minute: 30 minutes, ambient, untreated 3 micron
[2] = Extraction of process chemicals from saline: TRITON X100; settings: TRITON X45, X114, X100

| Structure (SMILES) | plasma filterability (in words) [1] | Minimum Porosity of Filter which Provides a Flow Rate of 12 mL/minute [1] | extraction efficiency as hydrophilicity of the TRITON increases (in words) [2] |
| --- | --- | --- | --- |
| FC(F)OC(Cl)C(F)(F)F (stereo not drawn) [FORANE, 1-chloro-2,2,2-trifluoroethyl difluoromethyl ether] | improves the filterability of plasma | < 0.45 micron |  |
| CCCCCCC(C)O (stereo not drawn) [2-octanol] | improves the filterability of plasma | < 1.2 micron | declined |
| CCCCCO [1-pentanol] |  |  | declined |
